In PubChem BioAssay AID2417 (National Center for Advancing Translational Sciences (NCATS), 2010):
About 4,300 (3.1%) of roughly 140,000 compounds were called active. The shares of active, inactive and inconclusive entries below differ from those in the screen.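 The calls were made as follows: active = readout at or below -70, meaning at least 70% loss of cells showing the perinucleolar compartment, a nuclear body marking cancer cells; inconclusive = readout between -30 and a set limit; inactive = the rest.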

Assay: High Content Assay for Compounds that inhibit the Assembly of the Perinucleolar Compartment;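 also: plate controls were DMSO wells for no effect and camptothecin positive control wells for full effect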
Conditions: PC3M PTB-GFP, PNC prevalence imaging, 16 h; at 10 µM; active compounds read low
Method in brief: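 Compounds are pinned in duplicate onto adhered PC3M cells stably expressing GFP-tagged PTB and incubated 16 h at 37 C. Cells are then fixed, nuclei stained with Hoechst, and PNC-positive cells counted.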

SMILES	activity change (PNC), negative = inhibition
CCc1c(C(C)O)oc2ccc3c(C)cc(=O)oc3c12 (configuration not stated)	inactive: 95.7%
CSCCOC(=O)C1=C(C)Nc2ccc(C)cc2S1	inconclusive: -51.3%
c1csc(-c2nn3c(Cn4cnc5ccccc54)nnc3s2)c1	inconclusive: -38.2%
O=C(C(=O)N1CCc2ccccc2C1)c1cn(CC(=O)N2CCOCC2)c2ccccc12	inactive: -19.8%
O=[N+]([O-])c1ccc(NNC(=S)Nc2ccccc2)cc1	inactive: 7.06%
CCC(c1nnc(SCC(=O)Nc2nnc(-c3ccccc3)o2)n1Cc1ccccc1)N(C)C (configuration not stated)	inactive: 56.8%
Cn1cccc1Cc1nnc(SCC(=O)NC2CCCCC2)n1-c1ccc(F)cc1	inactive: -14%
O=C(c1ccc(=O)n(Cc2ccc(Cl)c(Cl)c2)c1)N1CCOCC1	inconclusive: -33.6%
Cc1scc(C(=O)NNC(=S)NC(C)c2ccccc2)c1C (configuration not stated)	inconclusive: -38.6%
COc1ccc(C(=O)NC(=S)NCc2ccc(-c3nc4ccccc4o3)cc2)cc1OC	inactive: -25%
CC(=O)c1c(C)n([O-])c2ccccc2[n+]1=O	inconclusive: -62.2%
Cc1ccc(O)c(C(=O)CC(=O)c2cccc(F)c2)c1	inconclusive: -46.9%
CC(O)c1n(C)c(Cl)c[n+]1C (configuration not stated)	inconclusive: -31.3%
COC(=O)c1ccccc1NC(=O)CN(c1ccc(OC)cc1)S(C)(=O)=O	inconclusive: -54.2%
CCCCN=Cc1sc2ccc(OCC)cc2c1O	inconclusive: -61.4%
Cc1cc(C(F)(F)F)c(C#N)c(SCC(=O)NC2CC2)n1	inconclusive: -65.6%
Cc1ccc2c(c1)N(C(C)C(=O)NCCc1ccccc1)C(=O)CO2 (configuration not stated)	inconclusive: -37.9%
Cc1ccccc1N=C1c2cc([N+](=O)[O-])ccc2-c2ncccc21	inconclusive: -31.6%
Cc1ccccc1-c1nnn(CC(=O)c2ccc(S(=O)(=O)N3CCCC3)cc2)n1	active: -100%
CC1(C)CC2CC(C)(CN2C(=O)C23CCC(C)(C(=O)O2)C3(C)C)C1 (configuration not stated)	inactive: -28.6%
COc1ccc(S(=O)(=O)NCC(c2cccnc2)N2CCN(C)CC2)cc1C (configuration not stated)	inactive: 23.8%
CCn1c2ccccc2c2cc(Nc3cc(C)nc4ncnn34)ccc21	inconclusive: -57.2%
CCOC(=O)c1ccc(NC(=O)CSc2nc3c(c(=O)n2-c2ccccc2OC)SCC3)cc1	inconclusive: -47.1%

Part of the list above, as a markdown table:

| SMILES | activity change (PNC), negative = inhibition |
| --- | --- |
| CCc1c(C(C)O)oc2ccc3c(C)cc(=O)oc3c12 (configuration not stated) | inactive: 95.7% |
| CSCCOC(=O)C1=C(C)Nc2ccc(C)cc2S1 | inconclusive: -51.3% |
| c1csc(-c2nn3c(Cn4cnc5ccccc54)nnc3s2)c1 | inconclusive: -38.2% |

(continued)

SMILES	activity change (PNC), negative = inhibition
CC(C)CC(NC(=O)c1ccc(Cl)cc1)C(=O)OCC(=O)c1ccc2c(c1)NC(=O)CO2 (configuration not stated)	inconclusive: -37.7%
O=C(Cn1nnc(-c2ccccc2)n1)N/N=C/c1cccc([N+](=O)[O-])c1	inconclusive: -33.4%
Cc1ccc2c(c1)/C(=N/OC(=O)c1ccc(F)cc1)CCS2	inactive: 23.7%
Cc1sc2nc(SCC(=O)NCCOCCO)n(C)c(=O)c2c1C	inactive: -15.7%
CCOC(=O)Cc1csc(NC(=O)CSc2nnc(-c3cccnc3)n2Cc2ccco2)n1	inconclusive: -54.3%
O=C(Cn1cnc2ccccc21)NCc1ccccc1	inconclusive: -49.5%
COc1ccc2cc(CN(CCc3ccccc3)Cc3nnnn3CC3CCCO3)c(=O)[nH]c2c1 (configuration not stated)	inactive: 18.5%
CCn1c(SCC(=O)Nc2ccccc2C(=O)OC)nnc1-c1cccc(C)c1	inconclusive: -35.5%
COc1ccc(CC(=O)Oc2cc(C)[nH]c(=O)c2[N+](=O)[O-])cc1	inconclusive: -32.4%
CC(C)[C@H](NC(=O)Nc1ccc(S(N)(=O)=O)cc1)C(=O)O	inconclusive: -59.4%
O=c1oc2ccccc2c(NCc2ccccc2)c1[N+](=O)[O-]	inconclusive: -45.8%
Cc1ccc(S(=O)(=O)N2CCCC2C(=O)Nc2nc3c(s2)CCCC3)cc1 (configuration not stated)	inconclusive: -42.5%
O=Cc1cc2ccccc2nc1SCc1ccc(Cl)cc1	inactive: -13.5%
CCn1cnc2c1c(=O)n(CC(=O)Nc1ccc3c(c1)OC(F)(F)O3)c(=O)n2Cc1ccccc1	inconclusive: -50.7%
COC(=O)c1cc(OC)c(OC)cc1NCC(=O)Nc1cccc(C(F)(F)F)c1	inconclusive: -51.7%
N#C/C(=C(/O)CN1C(=O)c2ccccc2C1=O)c1nc2ccccc2[nH]1	inconclusive: -71.4%
O=C(O)c1cn(Cc2ccccc2)c2ccccc2c1=O	inconclusive: -47.8%
CCOc1cc(C2CC(=O)c3c(ccc4ccccc34)N2)ccc1O (configuration not stated)	inactive: 28.4%
CCCCNc1ccc2nsnc2c1[N+](=O)[O-]	inconclusive: -46.5%
Cc1cc(C)cc(NC(=O)c2ccc(S(=O)(=O)C(F)F)cc2)c1	inactive: -28.7%
CN(C)c1ccc(N/C=C/C(=O)C(C)(C)C)cc1	inactive: -1.14%
CCOc1ccc(OCC)c(NS(=O)(=O)c2ccc3c(c2)n(C)c(=O)c(=O)n3C)c1	inconclusive: -41.6%
O=C(c1ccc(Cl)s1)N1CCCC1	inactive: -18.5%

SMILES	activity change (PNC), negative = inhibition
O=C(COc1ccc2c(c1)CCC2)NCc1ccc(Cl)cc1	inconclusive: -47.6%
CC(C)(C)CC(=O)Nc1ccc(Nc2ccccc2)cc1	inconclusive: -44%
Cc1ccc(S(=O)(=O)NCC2CCC(C(=O)NCc3ccco3)CC2)cc1 (configuration not stated)	inactive: 8.35%
COC(=O)C1CCN(C(=O)COc2cc3sc(C)nc3c3sccc23)CC1	inactive: 73.7%
O=C(NCCCNCCCNC(=O)c1ccccn1)c1ccccn1	inconclusive: -78.9%
CCOC(=O)c1cccc(NC(=O)CCNS(=O)(=O)c2ccc3c(c2)CCN3C(=O)CC)c1	inconclusive: -33.3%
Cc1c(/C=C/C(=O)c2ccccc2)cnn1C	inactive: 61.8%
Brc1ccccc1-c1nnc(CSc2nnc3sc4ccccc4n23)o1	inactive: -17%
CC(C)C(NC(=O)CSc1ccc(Cl)cc1)C(C)C	active: -82.8%
CCOC(=O)N1C=CC(C)=C[C@@H]2[C@@H](N3C(=O)c4ccccc4C3=O)C(=O)N21	inactive: -29.8%
COC(=O)c1ccc(-n2cncn2)c(F)c1	inconclusive: -48.9%
COc1ccc(NC(=O)CSc2ccc(NC(C)=O)cc2)cc1S(=O)(=O)N1CCCCC1	inconclusive: -32.3%
O=C(COC(=O)c1ccco1)NCc1cccs1	inconclusive: -73.9%
CC(=O)Nn1c(C)nnc1-n1nc(C)cc1C	inconclusive: -48.7%
COc1ccc(-c2nc(-c3ccccc3OC)no2)cc1OC	inactive: 12.1%
CO/N=C/c1ccc(N2CCN(C(=O)c3cccc(C(F)(F)F)c3)CC2)c([N+](=O)[O-])c1	inactive: -12.4%
COc1ccc(/C=C\C(=O)c2c(O)ccc3c(C)cc(=O)oc23)cc1	inconclusive: -32.7%
CCn1ncc(C2=NOC(C(=O)NCc3ccc(Cl)cc3)C2)c1C (configuration not stated)	active: -82%
CCOc1ccc2nc(/N=C/c3c(C)[nH]n(-c4ccccc4)c3=O)sc2c1	inactive: -6.87%
CN(C)C(=O)N1CCN(C(=O)N2CCOCC2)CC1	active: -100%
CCC(=O)Nc1ccc(S(=O)(=O)NCC2CCCO2)cc1 (configuration not stated)	inconclusive: -50.2%
COC(=O)Oc1ccc(/C=N/NC(=O)CSCc2ccc(Cl)cc2)cc1OC	inconclusive: -52.4%
Cc1csc2nc(CCNS(=O)(=O)c3cccs3)cn12	inactive: 10.3%

Retrieved by structure from the list above:
SMILES	activity change (PNC), negative = inhibition
COc1ccc(NC(=O)CSc2ccc(NC(C)=O)cc2)cc1S(=O)(=O)N1CCCCC1	inconclusive: -32.3%
O=C(COc1ccc2c(c1)CCC2)NCc1ccc(Cl)cc1	inconclusive: -47.6%

Carrying on:

SMILES	activity change (PNC), negative = inhibition
CCCCCCn1c(COc2ccccc2F)nnc1SCC(=O)c1c(N)n(C)c(=O)n(C)c1=O	inconclusive: -34.2%
CC12CC(NC(=O)N1Cc1ccccc1)c1ccccc1O2 (configuration not stated)	inconclusive: -37.3%
COc1ccc(C(=O)COC(=O)c2ccc3ccccc3n2)cc1	active: -89.8%
C/C(=N\NC(=O)c1cc(-c2cccnc2)nc2ccccc12)c1ccc(O)cc1O	active: -92.2%
COc1cccc(N(CC(=O)O)S(=O)(=O)c2ccccc2)c1	inconclusive: -36.9%
CCCn1nnc(NC(=O)c2ccc(OC)cc2)n1	inconclusive: -34.2%
COC(=O)c1ccc(/C(O)=C(\C#N)c2nc3ccccc3s2)cc1	inconclusive: -68.1%
COc1cc(/C=N\Nc2nc3ccccc3o2)cc(OC)c1OC	inactive: -4.34%
COCCCn1cnc2c(c1=O)c1nc3ccccc3nc1n2CCc1ccccc1	inconclusive: -50.3%
Cc1cc(C)cc(OCC(=O)N2CCCCCC2)c1	inconclusive: -66.7%
COCCNC(=O)c1c[nH]c2ccc(S(=O)(=O)N3CCC4(CC3)OCCO4)cc2c1=O	inconclusive: -48.1%
O=C1C2C3C=CC(C3)C2C(=O)N1CCCCN1C(=O)C2C3C=CC(C3)C2C1=O (configuration not stated)	inactive: -12.7%
Cc1ccsc1/C=N/n1c(-c2ccncc2)n[nH]c1=S	inactive: 18.3%
CCOc1ccc(Nc2cc(=O)n(C)c(=O)n2C)cc1	inconclusive: -53%
O=C1CN(c2ccccc2Cl)C(=O)CN1c1ccccc1Cl	inactive: 12.8%
Cc1cc(C)nc(N2CCCC(C(=O)NCCc3ccc(F)cc3)C2)n1 (configuration not stated)	inconclusive: -46.4%
O=c1cc(C(F)(F)F)oc2c1ccc1ccccc12	inconclusive: -45.1%
CN(C)C(CNC(=O)Nc1cccc(Cl)c1)c1cccnc1 (configuration not stated)	inconclusive: -39.4%
NC(=S)Nc1cc2ccccc2c2ccccc12	inconclusive: -32.9%
CCCC(C1=C(O)CC(C)(C)CC1=O)C1C(=O)CC(C)(C)CC1=O (configuration not stated)	inactive: -11.6%
Clc1ccccc1CSc1snnc1-c1ccccc1	inconclusive: -41.3%
Cc1cccc(OCC(=O)NC(Cc2ccccc2)C(=O)O)c1 (configuration not stated)	inconclusive: -40%
O=C(CC(NC(=O)c1ccccc1Cl)c1ccccc1)NCCc1ccc(Cl)cc1 (configuration not stated)	active: -108%
